Results from the supplement of paper PMC6078165.
± gives the standard deviation of the averaged measurements. Values are relative to the signal before dosing, not to a vehicle control; the signal also falls without drug.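 Fibroblast labels name human fibroblasts: mostly primary ones from tissues such as uterus (C12385, HUF), lung (H6013), bone (Hs27A), adrenal (HADF) and skin (WS1), plus mammary HMF and breast cancer-associated Hs343T. The cancer cells are basal-like or mesenchymal-like triple-negative breast cancer lines. The paper calls a changed response a hit when it shifts by more than 3x the replicate standard deviation. The tissue of the other fibroblasts is not given here.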

System: MDAMB231
Experiment: relative JC-1 red fluorescence (viability) vs pre-drug, coculture with fibroblast (fraction); higher = more viable cancer cells
Method: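 JC-1 labelled TNBC cells cocultured 1:1 (1,500 cells each) with CellTrace Violet stained primary or stromal fibroblasts in 384-well plates in FluoroBrite medium, treated with one of 42 anticancer drugs at 0.1, 1, 10 or 100 uM. JC-1 red fluorescence (mitochondrial integrity in cancer cells only) was read by plate reader every 8 h for 72 h. Values are normalised to each well's pre-drug value. The stock of one drug was tenfold lower, so its dose labels may be too high.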

O=C(O)C(=O)O.[NH-][C@@H]1CCCC[C@H]1[NH-].[Pt+2] [Oxaliplatin]
relative JC-1 red fluorescence
Details	8 h	16 h	24 h	32 h	40 h	48 h	56 h	64 h	72 h
10 µM, coculture fibroblast: C12385	0.7509 ± 0.0039	0.73 ± 0.028	0.617 ± 0.025	0.615 ± 0.02	0.544 ± 0.02	0.506 ± 0.012	0.4522 ± 0.0032	0.445 ± 0.014	0.422 ± 0.022
10 µM, coculture fibroblast: H6013	0.88828 ± 0.0001	0.8198 ± 0.0035	0.784 ± 0.038	0.771 ± 0.025	0.738 ± 0.02	0.716 ± 0.034	0.707 ± 0.019	0.688 ± 0.02	0.651 ± 0.011
10 µM, coculture fibroblast: H6019	0.77636 ± 4.1e-05	0.736 ± 0.019	0.66195 ± 0.00049	0.674 ± 0.013	0.639 ± 0.0051	0.6227 ± 0.0039	0.578 ± 0.011	0.5746 ± 0.0024	0.5391 ± 0.0052
10 µM, coculture fibroblast: H6076	0.905 ± 0.055	0.809 ± 0.043	0.749 ± 0.03	0.716 ± 0.023	0.673 ± 0.011	0.628 ± 0.0083	0.6 ± 0.024	0.579 ± 0.036	0.571 ± 0.037
10 µM, coculture fibroblast: H6231	0.838 ± 0.19	0.8709 ± 0.0053	0.7945 ± 0.0029	0.735 ± 0.0048	0.683 ± 0.012	0.652 ± 0.014	0.605 ± 0.0099	0.57 ± 0.017	0.542 ± 0.015
10 µM, coculture fibroblast: HADF	0.886 ± 0.011	0.8486 ± 0.0065	0.808 ± 0.011	0.765 ± 0.025	0.723 ± 0.016	0.671 ± 0.012	0.652 ± 0.011	0.637 ± 0.011	0.588 ± 0.0059
10 µM, coculture fibroblast: HCFa	0.898 ± 0.0097	0.846 ± 0.022	0.808 ± 0.009	0.799 ± 0.02	0.758 ± 0.034	0.717 ± 0.043	0.688 ± 0.053	0.665 ± 0.049	0.619 ± 0.056
10 µM, coculture fibroblast: HCPF	0.841 ± 0.0086	0.7402 ± 0.002	0.676 ± 0.014	0.6362 ± 0.0062	0.588 ± 0.0064	0.537 ± 0.0087	0.504 ± 0.0052	0.4773 ± 0.0031	0.4569 ± 0.0022
10 µM, coculture fibroblast: HHSteC	0.9069 ± 0.008	0.86546 ± 8.4e-05	0.809 ± 0.0088	0.754 ± 0.016	0.716 ± 0.026	0.677 ± 0.028	0.639 ± 0.024	0.62 ± 0.0071	0.577 ± 0.0071
10 µM, coculture fibroblast: HMF	0.87 ± 0.031	0.794 ± 0.032	0.744 ± 0.025	0.7 ± 0.029	0.661 ± 0.021	0.617 ± 0.023	0.585 ± 0.018	0.561 ± 0.023	0.551 ± 0.019
10 µM, coculture fibroblast: HPFa	0.928 ± 0.025	0.89368 ± 0.00052	0.8299 ± 0.0036	0.7702 ± 0.0039	0.731 ± 0.013	0.685 ± 0.014	0.635 ± 0.022	0.608 ± 0.031	0.56 ± 0.039
10 µM, coculture fibroblast: HUF	0.851 ± 0.012	0.748 ± 0.045	0.704 ± 0.0071	0.616 ± 0.018	0.5482 ± 0.0018	0.516 ± 0.011	0.464 ± 0.014	0.445 ± 0.028	0.422 ± 0.031
10 µM, coculture fibroblast: Hs5	0.877 ± 0.038	0.811 ± 0.026	0.7721 ± 0.003	0.735 ± 0.011	0.69 ± 0.017	0.638 ± 0.012	0.605 ± 0.023	0.575 ± 0.023	0.559 ± 0.025
10 µM, coculture fibroblast: Hs27A	0.906 ± 0.022	0.835 ± 0.012	0.795 ± 0.011	0.771 ± 0.028	0.725 ± 0.034	0.658 ± 0.038	0.666 ± 0.039	0.649 ± 0.036	0.608 ± 0.034
10 µM, coculture fibroblast: Hs343T	0.919 ± 0.033	0.828 ± 0.087	0.775 ± 0.12	0.724 ± 0.13	0.668 ± 0.14	0.615 ± 0.14	0.557 ± 0.14	0.526 ± 0.16	0.488 ± 0.17
10 µM, coculture fibroblast: WS1	0.7597 ± 0.003	0.721 ± 0.049	0.609 ± 0.065	0.599 ± 0.015	0.5422 ± 0.0028	0.50904 ± 0.0001	0.47 ± 0.01	0.461 ± 0.027	0.425 ± 0.049
100 µM, coculture fibroblast: C12385	0.774 ± 0.023	0.753 ± 0.028	0.644 ± 0.011	0.6435 ± 0.0027	0.578 ± 0.017	0.535 ± 0.011	0.487 ± 0.0096	0.4785 ± 0.0013	0.45857 ± 0.00021
100 µM, coculture fibroblast: H6013	0.908 ± 0.01	0.846 ± 0.014	0.816 ± 0.028	0.794 ± 0.021	0.7523 ± 0.0021	0.707 ± 0.031	0.681 ± 0.024	0.662 ± 0.039	0.615 ± 0.046
100 µM, coculture fibroblast: H6019	0.775 ± 0.0092	0.698 ± 0.044	0.655 ± 0.018	0.628 ± 0.041	0.586 ± 0.033	0.562 ± 0.033	0.506 ± 0.034	0.482 ± 0.039	0.444 ± 0.033
100 µM, coculture fibroblast: H6076	0.88 ± 0.018	0.826 ± 0.017	0.79892 ± 0.00075	0.779 ± 0.0082	0.7347 ± 0.0037	0.6868 ± 0.0024	0.651 ± 0.0094	0.639 ± 0.0085	0.619 ± 0.015
100 µM, coculture fibroblast: H6231	0.9142 ± 0.006	0.825 ± 0.0042	0.756 ± 0.021	0.721 ± 0.015	0.664 ± 0.013	0.638 ± 0.011	0.6 ± 0.018	0.592 ± 0.014	0.572 ± 0.023
100 µM, coculture fibroblast: HADF	0.9002 ± 0.0076	0.8339 ± 0.0047	0.79 ± 0.0095	0.7651 ± 0.003	0.727 ± 0.021	0.679 ± 0.03	0.66 ± 0.018	0.65 ± 0.022	0.604 ± 0.02
100 µM, coculture fibroblast: HCFa	0.939 ± 0.028	0.887 ± 0.033	0.867 ± 0.046	0.837 ± 0.043	0.79 ± 0.04	0.737 ± 0.028	0.719 ± 0.022	0.693 ± 0.017	0.641 ± 0.023
100 µM, coculture fibroblast: HCPF	0.876 ± 0.054	0.772 ± 0.057	0.724 ± 0.045	0.709 ± 0.047	0.65 ± 0.041	0.613 ± 0.029	0.581 ± 0.038	0.553 ± 0.034	0.536 ± 0.03
100 µM, coculture fibroblast: HHSteC	0.9437 ± 0.0029	0.8908 ± 0.0012	0.86 ± 0.021	0.826 ± 0.031	0.773 ± 0.042	0.732 ± 0.058	0.689 ± 0.06	0.669 ± 0.064	0.626 ± 0.066
100 µM, coculture fibroblast: HMF	0.909 ± 0.021	0.8441 ± 0.0081	0.8 ± 0.015	0.76 ± 0.033	0.719 ± 0.034	0.67 ± 0.036	0.636 ± 0.042	0.6 ± 0.052	0.574 ± 0.055
100 µM, coculture fibroblast: HPFa	0.9558 ± 0.0086	0.9209 ± 0.004	0.877 ± 0.015	0.826 ± 0.039	0.798 ± 0.052	0.767 ± 0.065	0.719 ± 0.079	0.69 ± 0.09	0.642 ± 0.091
100 µM, coculture fibroblast: HUF	0.86 ± 0.013	0.749 ± 0.019	0.7605 ± 0.0011	0.6663 ± 0.0057	0.607 ± 0.012	0.592 ± 0.016	0.5441 ± 0.0013	0.533 ± 0.0055	0.518 ± 0.0062
100 µM, coculture fibroblast: Hs5	0.899 ± 0.043	0.813 ± 0.034	0.793 ± 0.037	0.756 ± 0.035	0.725 ± 0.021	0.677 ± 0.014	0.647 ± 0.024	0.626 ± 0.024	0.616 ± 0.027
100 µM, coculture fibroblast: Hs27A	0.908 ± 0.011	0.873 ± 0.011	0.823 ± 0.016	0.7973 ± 0.0077	0.759 ± 0.026	0.694 ± 0.04	0.723 ± 0.034	0.716 ± 0.026	0.672 ± 0.024
100 µM, coculture fibroblast: Hs343T	0.718 ± 0.27	0.627 ± 0.34	0.645 ± 0.3	0.585 ± 0.38	0.528 ± 0.38	0.508 ± 0.36	0.475 ± 0.34	0.466 ± 0.32	0.458 ± 0.31
100 µM, coculture fibroblast: WS1	0.785 ± 0.024	0.722 ± 0.017	0.657 ± 0.021	0.64 ± 0.036	0.612 ± 0.046	0.582 ± 0.064	0.529 ± 0.066	0.525 ± 0.075	0.498 ± 0.063
